For test [1], the target named is T1, wild-type N-terminal domain of major ampullate spidroin 1 (MaSp1) from Euprosthenops australis (Euprosthenops australis), Q05H60.
T1 chain: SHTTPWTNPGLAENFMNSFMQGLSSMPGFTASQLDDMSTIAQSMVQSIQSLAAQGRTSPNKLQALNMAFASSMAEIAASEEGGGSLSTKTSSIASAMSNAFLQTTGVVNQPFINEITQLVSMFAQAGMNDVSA
The experiment in a line: SEC; high-resolution SEC with Trp fluorescence detection, Superdex-75 Increase 10/300, 0.8 ml/min, 20 mM MES, pH 6.0, ionic strength 20 mM (KCl); elution volume against protein concentration fitted to a monomer/dimer equilibrium; dimer to monomers; both purified. The following applies: remark: other sources report otherwise.

Test [2] deals with T1, wild-type N-terminal domain of major …. The test can be described thus: NMR chemical shift changes (1H,15N HSQC) between monomer and dimer conditions; pH 7.0, 200 mM ionic strength against pH 6.0, 8 mM ionic strength; 298 K; 300 µM protein (600 µM L6-NTD for assignments at pH 6); both purified. The following applies: remark: other sources report otherwise.
In test [3] the target is wild-type N-terminal domain of major ampullate spidroin 1 (MaSp1) from Euprosthenops australis (Euprosthenops australis) (UniProt Q05H60). The experiment in a line: condition: only at pH 7.0 and 200 mM ionic strength; SEC-MALS; 50 mM phosphate, pH 7.0, ionic strength 200 mM (KCl), monomer conditions; Superdex-75 or Superdex-200 HR10/300, 0.5 ml/min; both purified. A general note: SEC sorts molecules by how far they enter the pores of the column.

No constants are given. Whether binding was seen depends on the method and setting. Some entries that bind do so weakly or less than the wild type.

B1: wild-type N-terminal domain of major ampullate spidroin 1 (MaSp1) from Euprosthenops australis, Q05H60 24-156 (domain or fragment)
chain: SHTTPWTNPGLAENFMNSFMQGLSSMPGFTASQLDDMSTIAQSMVQSIQSLAAQGRTSPNKLQALNMAFASSMAEIAASEEGGGSLSTKTSSIASAMSNAFLQTTGVVNQPFINEITQLVSMFAQAGMNDVSA
With B1, the binding result in test [1] and in test [2] was “binds” each time.

B2: wild-type N-terminal domain of major ampullate spidroin 1 (MaSp1) from Euprosthenops australis (domain or fragment, UniProt Q05H60 24-156)
chain: SHTTPWTNPGLAENFMNSFMQGLSSMPGFTASQLDDMSTIAQSMVQSIQSLAAQGRTSPNKLQALNMAFASSMAEIAASEEGGGSLSTKTSSIASAMSNAFLQTTGVVNQPFINEITQLVSMFAQAGMNDVSA
As to B2, in test [3], the binding result is reported as “no binding”.

These data come from PMC6763431, “Methionine in a protein hydrophobic core drives tight interactions required for assembly of spider silk” (Nature Communications, 2019).
